Test results as given in patent US20120232251A1, “GLUCOSE SENSOR” (King's College London, priority 2009, published 2012).

What was measured:
Format in all cases: binding
[1] = Steady-state fluorescence intensity response of badan-labelled GBP mutants to glucose in PBS
Description: (§1) To label GBP mutants with badan, 50 μM protein was dissolved in 5 mM Tris(2-carboxyethyl)phosphine in phosphate-buffered saline (PBS) pH 7.4, and then a 10-fold excess of dye (500 μM) was added and the mixture incubated overnight at 4° C., after which it was purified on a Sephadex G-25 gel-filtration column.
Steady-state fluorescence intensity was recorded on a Perkin-Elmer LS50B fluorimeter (Perkin Elmer Instruments, Beaconsfield, UK). The excitation and emission wavelengths of badan were 400 and 550 nm respectively. All data were obtained at room temperature using quartz cuvettes with sample volume of 100 μL. The labelled protein was incubated with increasing amounts of D-glucose for 15-20 min at room temperature before fluorescence was recorded.
The binding constant, Kd, was calculated from the sigmoidal dose-response curves using Prism 5 software (GraphPad, San Diego, Calif., USA). Lifetime values were obtained from fluorescence transients using the TR12 analysis package (courtesy of Dr. Paul Barber, Gray Cancer Institute of Radiation Oncology and Biology, Oxford University, Oxford, UK). Global analysis was applied to the entire data set of twelve transients as described for the H152C mutant previously.

[2] = Fluorescence lifetime measurements (TCSPC) of GBP-badan with addition of glucose in PBS
[3] = Steady-state fluorescence intensity response of badan-labelled GBP mutant to glucose in serum; details: serum from healthy individuals vs PBS (FIG. 3), listed as H152C/A213R/L238S-badan
Description: as §1
Venous blood samples from healthy volunteers were collected in Vacuette tubes. The specimens were incubated at room temperature for 4 days to allow blood clotting and glycolysis. The samples were then centrifuged at 3500 g for 20 min and serum removed, pooled and stored until use. The glucose concentrations of serum samples were determined using a hexokinase-based assay (Sigma).
Steady-state fluorescence intensity was recorded on a Perkin-Elmer LS50B fluorimeter (Perkin Elmer Instruments, Beaconsfield, UK). The excitation and emission wavelengths of badan were 400 and 550 nm respectively. […] The labelled protein was incubated with increasing amounts of D-glucose for 15-20 min at room temperature before fluorescence was recorded.
The binding constant, Kd, was calculated from the sigmoidal dose-response curves using Prism 5 software (GraphPad, San Diego, Calif., USA). Lifetime values were obtained from fluorescence transients using the TR12 analysis package (courtesy of Dr. Paul Barber, Gray Cancer Institute of Radiation Oncology and Biology, Oxford University, Oxford, UK). […]

[4] = global analysis of twelve transients, bi-exponential model, PBS

## H152C/A213R/L238S: E. coli glucose/galactose binding protein triple mutant labelled at cysteine 152 with badan
[1]; FIG. 2
  change in Kd compared with single mutant H152C-badan: three-order of magnitude
[1]; badan-labelled, glucose response curve (FIG. 2)
  operating range (glucose concentration): 1 to 100 mM
[2]; badan-labelled
  fluorescence lifetime on glucose addition (in words): increased markedly
[2]; [4]
  long fluorescence lifetime state: 3.1 ns
  short fluorescence lifetime state: 0.9 ns
[3]
  fluorescence response to glucose in PBS compared with serum (in words): similar
